“And” between values parts separate entries of the source, which are not always exact repeats. Equal values may be shown once. The list shows a part of the results. Repeats in this data set agree poorly, so a single value says little.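 HEK293T cells were given each compound shortly before transfection with a reporter in which red mCherry is followed by the SARS-CoV-2 frameshift element and then GFP in the −1 frame, so GFP appears only after frameshifting.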
Legend:
[1] = test system: SARS-CoV-2 -1 PRF reporter mCherry-FSE-GFP(-1); experiment: mCherry (red) intensity as percent of control; higher = higher upstream reporter expression; details: 10 µM; 24 h; HEK293T
[2] = test system: SARS-CoV-2 -1 PRF reporter mCherry-FSE-GFP(-1); experiment: percent effect, decrease of GFP/mCherry ratio (-1 PRF reporter) relative to controls; higher = stronger frameshift inhibition; details: 10 µM; 24 h; HEK293T

Compound	mCherry [1]	percent effect [2]
CC1(C)NC(=O)N(c2ccc([N+](=O)[O-])c(C(F)(F)F)c2)C1=O [nilutamide]	74.1%	-3.77%
OCc1cccnc1	105%	0.253%
CC(C)(C(=O)O)c1ccc(C(=O)CCCN2CCC(OC(c3ccccc3)c3ccccc3)CC2)cc1 [carebastine]	116%	-1.32%
CC1=C(C(=O)O)N2C(=O)[C@@H](NC(=O)[C@H](N)c3ccc(O)cc3)[C@H]2SC1	98.8%	0.537%
N[C@@H](C(=O)N[C@@H]1C(=O)N2C(C(=O)O)=C(Cl)CS[C@H]12)c1ccccc1	95.2%	-5.34%
O[C@@H]1CO[C@H]2[C@@H]1OC[C@@H]2O [isosorbide]	117%	1.14%
O=c1[nH]c2ccccc2n1C1CCN(CCOc2ccccc2)CC1 [oxiperomide]	118%	0.922%
CC(=O)[C@@]1(O)CC[C@H]2[C@@H]3CCC4=CC(=O)C=C[C@]4(C)[C@H]3[C@@H](O)C[C@@]21C [deprodone]	81.2%	-0.703%
CC[C@@H]([C@H](C)O)n1ncn(-c2ccc(N3CCN(c4ccc(OC[C@@H]5CO[C@@](Cn6cncn6)(c6ccc(F)cc6F)C5)cc4)CC3)cc2)c1=O [Posaconazole]	103%	-5.12%
O=C1C(N2CCCCC2)CCN1c1ccccc1 (stereo unspecified) [felipyrine]	108%	-2.5%
Cc1cccc(C)c1NC(=O)C1CCCCN1C (stereo unspecified)	95.8%	-2.91%
CCOCc1nc2c(N)nc3ccccc3c2n1CC(C)(C)O [resiquimod]	73.9%	1.82%
Cc1ccc(-c2cc(C(F)(F)F)nn2-c2ccc(S(N)(=O)=O)cc2)cc1 [celecoxib]	94.6% and 92.1%	-4.17% and -5.17%
Oc1ccc(C2CNCCc3c2cc(O)c(O)c3Cl)cc1 (stereo unspecified) [fenoldopam]	109%	0.724%
CC(N/C(=N\C#N)Nc1ccncc1)C(C)(C)C (stereo unspecified) [pinacidil]	83.1%	-1.64%
CC(C)NCC(O)COc1ccccc1-n1cccc1 (stereo unspecified) [isamoltan]	104%	-2.97%
COc1c(-c2ccc3cc(NS(C)(=O)=O)ccc3c2)cc(-n2ccc(=O)[nH]c2=O)cc1C(C)(C)C [Dasabuvir]	96.4%	0.342%
C=C(C)Cn1c(N)cc(=O)n(C)c1=O [amisometradine]	63.2%	-3.84%

Part of the list above in order of number of heavy atoms, low to high.
Compound	mCherry [1]	percent effect [2]
O=C1C(N2CCCCC2)CCN1c1ccccc1 (stereo unspecified) [felipyrine]	108%	-2.5%
O=c1[nH]c2ccccc2n1C1CCN(CCOc2ccccc2)CC1 [oxiperomide]	118%	0.922%
COc1c(-c2ccc3cc(NS(C)(=O)=O)ccc3c2)cc(-n2ccc(=O)[nH]c2=O)cc1C(C)(C)C [Dasabuvir]	96.4%	0.342%

From the supplement of paper PMC8256030
